The subject of experiment [1] is MCF7 human breast adenocarcinoma cell line. As to the kind of experiment: Cell viability assay (ChemoMetec Via1-Cassette). Type of experiment: cell-based. To be noted: MCF7, 96 h, triplicate. The method, then:
viable cells. The experiments were carried out in triplicate.

The subject of experiment [2] is H460 non-small lung carcinoma cells. Set-up: method as in PMID 31964062. Conditions: cited from earlier work.

The structures appear in SMILES notation.

On to `O=C(CCCCCCC(=O)Nc1ccccc1)NO` [SAHA, suberanilohydroxamic acid, reference compound], for which the EC50 was about 1500 nM in experiment [1] and 1500 ± 400 nM in experiment [2].

The term EC50 denotes the midpoint of the concentration-response curve.
